# At least one compound was matched to its structure with a doubt left.
smiles,measurement,value
N=C(N)N/N=C/c1cccc(/C=N/NC(=N)N)n1 [PyBIG],thermal stability window for compound recovery,at least 50 °C
